Measured values from the supplement of paper PMC10849652.
The list shows a part of the results.

Chains of the proteins cited; added tags and fusions are not shown. Lines headed by an entry give the natural chain unless they say otherwise; changes in a name come on top.
UniProt Q8IY37: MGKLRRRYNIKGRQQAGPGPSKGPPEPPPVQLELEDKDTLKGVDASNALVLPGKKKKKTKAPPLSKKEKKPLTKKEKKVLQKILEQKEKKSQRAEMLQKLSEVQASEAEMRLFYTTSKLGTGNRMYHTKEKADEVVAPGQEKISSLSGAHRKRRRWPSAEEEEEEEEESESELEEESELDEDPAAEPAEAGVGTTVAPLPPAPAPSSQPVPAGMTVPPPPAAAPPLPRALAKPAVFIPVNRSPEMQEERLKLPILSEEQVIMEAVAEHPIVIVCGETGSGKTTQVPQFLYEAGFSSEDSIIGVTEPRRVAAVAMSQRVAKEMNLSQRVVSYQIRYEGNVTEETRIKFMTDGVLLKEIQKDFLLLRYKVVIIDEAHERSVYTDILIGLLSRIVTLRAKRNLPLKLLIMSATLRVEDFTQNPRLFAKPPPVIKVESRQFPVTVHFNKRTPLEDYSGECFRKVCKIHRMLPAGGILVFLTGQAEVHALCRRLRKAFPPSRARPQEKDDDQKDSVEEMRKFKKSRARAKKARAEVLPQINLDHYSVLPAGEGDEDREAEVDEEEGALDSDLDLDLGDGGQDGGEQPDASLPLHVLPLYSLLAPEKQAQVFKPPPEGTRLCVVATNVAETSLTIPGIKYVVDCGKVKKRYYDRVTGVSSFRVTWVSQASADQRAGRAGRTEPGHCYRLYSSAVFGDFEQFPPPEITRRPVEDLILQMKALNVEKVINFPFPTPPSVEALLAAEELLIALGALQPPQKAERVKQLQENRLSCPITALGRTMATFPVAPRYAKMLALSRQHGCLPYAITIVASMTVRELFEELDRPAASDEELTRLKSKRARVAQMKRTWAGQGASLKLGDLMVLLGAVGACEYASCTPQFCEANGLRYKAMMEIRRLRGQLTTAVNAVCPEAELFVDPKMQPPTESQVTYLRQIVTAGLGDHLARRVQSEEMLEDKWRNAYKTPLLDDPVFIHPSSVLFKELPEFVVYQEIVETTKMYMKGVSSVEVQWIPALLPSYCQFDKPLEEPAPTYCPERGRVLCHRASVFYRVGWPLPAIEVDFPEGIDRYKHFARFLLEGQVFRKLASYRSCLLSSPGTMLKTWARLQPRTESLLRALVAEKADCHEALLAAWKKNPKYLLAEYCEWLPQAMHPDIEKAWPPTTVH
UniProt Q9Y222: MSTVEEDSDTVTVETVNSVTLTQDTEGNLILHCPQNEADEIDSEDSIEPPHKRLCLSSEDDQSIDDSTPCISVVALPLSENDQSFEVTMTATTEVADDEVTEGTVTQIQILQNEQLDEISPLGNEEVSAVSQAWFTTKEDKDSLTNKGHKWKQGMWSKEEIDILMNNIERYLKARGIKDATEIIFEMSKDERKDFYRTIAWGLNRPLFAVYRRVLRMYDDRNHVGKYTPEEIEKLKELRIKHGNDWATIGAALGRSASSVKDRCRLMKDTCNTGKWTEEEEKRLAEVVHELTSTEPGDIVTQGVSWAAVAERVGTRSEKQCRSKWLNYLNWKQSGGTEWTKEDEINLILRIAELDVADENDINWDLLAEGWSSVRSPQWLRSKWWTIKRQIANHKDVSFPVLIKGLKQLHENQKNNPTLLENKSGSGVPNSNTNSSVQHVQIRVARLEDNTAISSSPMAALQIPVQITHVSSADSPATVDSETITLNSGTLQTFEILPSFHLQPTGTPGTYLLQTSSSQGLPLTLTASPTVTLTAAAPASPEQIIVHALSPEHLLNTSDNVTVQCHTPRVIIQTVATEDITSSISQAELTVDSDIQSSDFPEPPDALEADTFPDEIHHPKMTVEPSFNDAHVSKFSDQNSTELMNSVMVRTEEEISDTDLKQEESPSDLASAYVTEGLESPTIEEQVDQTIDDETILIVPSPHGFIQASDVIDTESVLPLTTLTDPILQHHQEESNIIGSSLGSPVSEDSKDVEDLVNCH
UniProt Q68CQ4: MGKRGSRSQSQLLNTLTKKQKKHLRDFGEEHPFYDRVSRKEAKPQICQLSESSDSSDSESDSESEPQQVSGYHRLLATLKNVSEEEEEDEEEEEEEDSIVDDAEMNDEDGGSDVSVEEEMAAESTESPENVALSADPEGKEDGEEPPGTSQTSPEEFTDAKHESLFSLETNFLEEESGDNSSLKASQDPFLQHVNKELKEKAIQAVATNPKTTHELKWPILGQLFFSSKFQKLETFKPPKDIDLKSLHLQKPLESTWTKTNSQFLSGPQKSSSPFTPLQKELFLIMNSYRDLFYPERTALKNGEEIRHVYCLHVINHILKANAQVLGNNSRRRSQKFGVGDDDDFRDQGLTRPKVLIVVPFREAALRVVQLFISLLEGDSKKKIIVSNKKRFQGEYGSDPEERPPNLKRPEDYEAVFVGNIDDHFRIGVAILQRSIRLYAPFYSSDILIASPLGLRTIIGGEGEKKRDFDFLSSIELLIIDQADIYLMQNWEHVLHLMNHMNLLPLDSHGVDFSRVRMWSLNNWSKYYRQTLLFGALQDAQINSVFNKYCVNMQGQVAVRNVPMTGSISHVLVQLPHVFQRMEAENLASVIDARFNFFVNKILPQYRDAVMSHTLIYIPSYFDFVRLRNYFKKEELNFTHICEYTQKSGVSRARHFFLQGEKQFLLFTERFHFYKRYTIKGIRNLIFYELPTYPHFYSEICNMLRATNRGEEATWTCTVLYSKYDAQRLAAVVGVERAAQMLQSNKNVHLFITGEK
UniProt Q6ZN54: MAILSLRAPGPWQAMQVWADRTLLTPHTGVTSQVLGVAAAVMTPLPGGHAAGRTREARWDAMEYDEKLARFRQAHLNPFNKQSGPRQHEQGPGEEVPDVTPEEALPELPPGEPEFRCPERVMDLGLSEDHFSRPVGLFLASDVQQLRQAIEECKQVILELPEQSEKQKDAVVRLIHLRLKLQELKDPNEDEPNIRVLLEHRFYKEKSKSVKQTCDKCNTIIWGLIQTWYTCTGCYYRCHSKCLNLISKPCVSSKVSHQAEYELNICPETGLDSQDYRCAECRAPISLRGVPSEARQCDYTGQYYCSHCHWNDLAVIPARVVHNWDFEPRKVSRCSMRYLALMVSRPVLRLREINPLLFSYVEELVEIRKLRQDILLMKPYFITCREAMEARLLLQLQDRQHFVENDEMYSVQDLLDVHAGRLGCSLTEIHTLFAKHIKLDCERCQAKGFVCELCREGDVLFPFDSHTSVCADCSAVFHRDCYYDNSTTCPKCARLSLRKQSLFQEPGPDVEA
UniProt Q8NEL9: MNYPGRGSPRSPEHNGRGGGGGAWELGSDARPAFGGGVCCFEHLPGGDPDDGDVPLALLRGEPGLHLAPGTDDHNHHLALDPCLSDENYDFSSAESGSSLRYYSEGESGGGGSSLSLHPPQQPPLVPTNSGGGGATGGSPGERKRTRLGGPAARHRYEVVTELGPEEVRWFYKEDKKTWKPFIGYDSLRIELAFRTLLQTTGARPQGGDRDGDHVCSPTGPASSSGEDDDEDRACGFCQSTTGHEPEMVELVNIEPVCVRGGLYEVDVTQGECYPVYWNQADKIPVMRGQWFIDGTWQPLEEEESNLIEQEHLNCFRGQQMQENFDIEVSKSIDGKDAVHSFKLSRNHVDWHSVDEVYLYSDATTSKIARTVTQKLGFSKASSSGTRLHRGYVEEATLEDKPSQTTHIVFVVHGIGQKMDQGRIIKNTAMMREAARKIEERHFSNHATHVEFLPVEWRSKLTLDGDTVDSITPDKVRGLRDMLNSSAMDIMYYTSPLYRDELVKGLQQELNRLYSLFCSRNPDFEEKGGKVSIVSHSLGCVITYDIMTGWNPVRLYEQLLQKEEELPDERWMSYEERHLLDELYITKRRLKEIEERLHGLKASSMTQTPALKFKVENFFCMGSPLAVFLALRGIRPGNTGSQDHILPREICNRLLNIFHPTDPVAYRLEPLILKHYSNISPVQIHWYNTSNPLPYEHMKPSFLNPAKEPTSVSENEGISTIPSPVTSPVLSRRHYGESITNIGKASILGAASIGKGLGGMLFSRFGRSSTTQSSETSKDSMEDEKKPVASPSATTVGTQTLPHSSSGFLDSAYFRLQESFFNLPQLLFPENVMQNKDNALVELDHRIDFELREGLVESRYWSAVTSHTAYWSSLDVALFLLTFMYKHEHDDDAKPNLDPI
UniProt Q7L5Y6, whole entry, looked up: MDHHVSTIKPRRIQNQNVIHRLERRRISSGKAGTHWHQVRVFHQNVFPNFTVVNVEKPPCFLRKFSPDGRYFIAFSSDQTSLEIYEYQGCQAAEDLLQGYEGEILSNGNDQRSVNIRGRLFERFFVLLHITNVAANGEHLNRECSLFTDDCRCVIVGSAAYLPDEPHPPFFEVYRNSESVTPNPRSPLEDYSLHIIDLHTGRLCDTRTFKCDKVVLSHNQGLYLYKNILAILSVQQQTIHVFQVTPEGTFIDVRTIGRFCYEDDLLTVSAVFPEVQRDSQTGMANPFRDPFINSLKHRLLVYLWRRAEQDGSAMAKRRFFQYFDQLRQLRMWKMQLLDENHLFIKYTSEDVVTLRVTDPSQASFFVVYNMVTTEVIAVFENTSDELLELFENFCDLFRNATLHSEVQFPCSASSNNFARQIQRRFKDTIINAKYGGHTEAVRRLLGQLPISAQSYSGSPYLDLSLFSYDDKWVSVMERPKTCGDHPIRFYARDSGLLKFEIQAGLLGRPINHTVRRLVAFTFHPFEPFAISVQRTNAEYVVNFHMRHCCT
UniProt Q9BSY9: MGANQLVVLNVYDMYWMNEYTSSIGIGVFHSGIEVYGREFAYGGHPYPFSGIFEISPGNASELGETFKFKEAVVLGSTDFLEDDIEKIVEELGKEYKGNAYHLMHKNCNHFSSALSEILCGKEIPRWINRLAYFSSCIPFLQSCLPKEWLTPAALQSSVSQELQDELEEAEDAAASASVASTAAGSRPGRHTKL
UniProt Q8TEH3: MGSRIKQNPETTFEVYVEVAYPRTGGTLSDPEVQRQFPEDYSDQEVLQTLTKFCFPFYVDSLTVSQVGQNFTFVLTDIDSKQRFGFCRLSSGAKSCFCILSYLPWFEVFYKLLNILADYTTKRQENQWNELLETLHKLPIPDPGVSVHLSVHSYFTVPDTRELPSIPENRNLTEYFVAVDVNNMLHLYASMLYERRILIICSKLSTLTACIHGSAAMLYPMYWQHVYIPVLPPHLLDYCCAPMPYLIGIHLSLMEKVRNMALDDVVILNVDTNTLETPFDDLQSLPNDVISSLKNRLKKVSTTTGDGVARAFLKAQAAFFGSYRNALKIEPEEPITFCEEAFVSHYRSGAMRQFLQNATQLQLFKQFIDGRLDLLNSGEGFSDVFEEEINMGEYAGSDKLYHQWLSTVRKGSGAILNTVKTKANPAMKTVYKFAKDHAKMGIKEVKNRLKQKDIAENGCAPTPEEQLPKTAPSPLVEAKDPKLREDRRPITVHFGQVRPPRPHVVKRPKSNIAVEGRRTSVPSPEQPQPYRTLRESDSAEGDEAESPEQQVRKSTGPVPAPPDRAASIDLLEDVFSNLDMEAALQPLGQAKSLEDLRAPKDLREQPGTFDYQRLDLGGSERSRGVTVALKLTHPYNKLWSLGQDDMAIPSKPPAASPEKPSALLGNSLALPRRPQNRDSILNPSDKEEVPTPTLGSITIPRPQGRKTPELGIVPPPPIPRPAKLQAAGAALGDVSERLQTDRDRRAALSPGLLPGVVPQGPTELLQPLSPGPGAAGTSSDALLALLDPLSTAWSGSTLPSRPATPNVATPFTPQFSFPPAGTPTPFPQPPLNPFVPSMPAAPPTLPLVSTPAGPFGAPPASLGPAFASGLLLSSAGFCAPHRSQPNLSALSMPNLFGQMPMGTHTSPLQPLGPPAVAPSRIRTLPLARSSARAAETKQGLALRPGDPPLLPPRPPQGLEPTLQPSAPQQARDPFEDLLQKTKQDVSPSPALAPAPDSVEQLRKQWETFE
UniProt Q6E0U4: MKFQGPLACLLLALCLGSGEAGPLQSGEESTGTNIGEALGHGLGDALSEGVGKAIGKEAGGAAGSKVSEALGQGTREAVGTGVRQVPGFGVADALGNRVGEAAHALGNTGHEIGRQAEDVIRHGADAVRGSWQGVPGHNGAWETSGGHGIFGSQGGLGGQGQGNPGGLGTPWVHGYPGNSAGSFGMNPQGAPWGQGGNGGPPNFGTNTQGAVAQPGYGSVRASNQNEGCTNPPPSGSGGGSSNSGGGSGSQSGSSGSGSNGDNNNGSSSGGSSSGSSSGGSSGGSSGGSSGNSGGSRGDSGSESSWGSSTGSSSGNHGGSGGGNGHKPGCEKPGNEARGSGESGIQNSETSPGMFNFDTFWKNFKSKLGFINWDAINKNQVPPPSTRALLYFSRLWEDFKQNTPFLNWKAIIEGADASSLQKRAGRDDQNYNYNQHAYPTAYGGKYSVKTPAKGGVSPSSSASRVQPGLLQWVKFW
UniProt O94760: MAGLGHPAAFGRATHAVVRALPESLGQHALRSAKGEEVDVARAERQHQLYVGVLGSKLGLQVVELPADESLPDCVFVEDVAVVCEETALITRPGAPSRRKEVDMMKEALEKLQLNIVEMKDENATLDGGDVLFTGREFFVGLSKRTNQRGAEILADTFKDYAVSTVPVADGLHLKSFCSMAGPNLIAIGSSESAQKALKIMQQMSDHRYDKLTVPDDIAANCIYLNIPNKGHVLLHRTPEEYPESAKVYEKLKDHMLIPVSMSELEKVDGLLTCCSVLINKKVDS

How the values were obtained:
Assay in all cases: log2 fold change, soluble protein after heating vs DMSO (PISA); higher = thermal stabilisation; K562 cells, 10 uM, 30 min; active = over 0.2 and 3.5 SD of the protein, either way, in both replicates (recomputed)
[1] = compound: NC1(c2ccc(-c3nc4ccn5c(=O)[nH]nc5c4cc3-c3ccccc3)cc2)CCC1
How it was run: (§1)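 For each measurement, 10 μM compound was applied for 30 min to K562 cells at 2×10^6 cells/mL. Aliquots were heated for 3 min across 48°C-58°C, pooled, and extracted in PBS with 0.5% NP-40 at 4°C; the supernatant after 21,000xg for 90 min was soluble protein. This was quantified by TMTpro 16plex LC-MS/MS with channel sums equalised, and thermal stability was reported relative to control samples from duplicates, on a log2 fold-change scale.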

[2] = compound: NCC(=O)Nc1ccc(-n2nc(C(F)(F)F)cc2-c2ccc3c(ccc4ccccc43)c2)cc1
How it was run: as §1

vorinostat = compound: O=C(CCCCCCC(=O)Nc1ccccc1)NO [vorinostat]
How it was run: as §1

citarinostat = compound: O=C(CCCCCCNC(=O)c1cnc(N(c2ccccc2)c2ccccc2Cl)nc1)NO [citarinostat]
How it was run: as §1

silmitasertib = compound: O=C(O)c1ccc2c(c1)nc(Nc1cccc(Cl)c1)c1ccncc12 [silmitasertib]
How it was run: as §1

[3] = compound: c1cc(OCCN2CCCCC2)cc(-c2n[nH]c3ccc(-c4nnc[nH]4)cc23)c1
How it was run: as §1

[4] = compound: NC(=O)c1cnc(N[C@@H]2CCCC[C@@H]2N)nc1Nc1cccc(-n2nccn2)c1
How it was run: as §1

[5] = compound: O=C1NC(=O)C(c2cnc3ccccn23)=C1c1cn2c3c(cc(F)cc13)CN(C(=O)N1CCCCC1)CC2
How it was run: as §1

[6] = compound: NC(=O)Nc1cc(-c2cccc(F)c2)sc1C(=O)N[C@H]1CCCNC1
How it was run: as §1

entinostat = compound: Nc1ccccc1NC(=O)c1ccc(CNC(=O)OCc2cccnc2)cc1 [entinostat]
How it was run: as §1

Measured: log2 fold change

DERPC (UniProt P0CG12)
inactive: [1] 0.008 | [2] -0.16 | vorinostat -0.042 | citarinostat -0.049 | silmitasertib -0.024 | [3] -0.045

DHX37 (UniProt Q8IY37)
inactive: [4] 0.016 | [5] 0.088

DHRSX (UniProt Q8N5I4)
inactive: [4] 0.017 | [1] -0.115 | [2] -0.088 | vorinostat -0.038 | silmitasertib -0.091

DDX25 (UniProt Q9UHL0)
inactive: [4] 0.197 | [1] -0.105 | [2] 0.367 | citarinostat 0.201 | silmitasertib 0.018 | [3] -0.024

DGKA (UniProt P23743)
inactive: [6] 0.065 | [1] -0.109 | [2] 0.039 | entinostat 0.11 | silmitasertib 0.285 | [5] -0.164

DMTF1 (UniProt Q9Y222)
inactive: [6] -0.131 | [4] 0.091 | [2] 0.097 | entinostat -0.044 | vorinostat 0.34

DIEXF (UniProt Q68CQ4)
inactive: [2] -0.111

DHX34 (UniProt Q14147)
inactive: citarinostat -0.078 | [5] -0.074 | [3] 0

DMBT1 isoform 6 (UniProt Q9UGM3)
inactive: [6] 1.04 | [1] 0 | entinostat -0.026 | silmitasertib 0.256 | [5] -0.073

DNAH10 (UniProt Q8IVF4)
inactive: [6] 0.057 | [1] -0.045 | [2] 0.026 | entinostat -0.041 | vorinostat 0.083 | citarinostat 0.242 | silmitasertib -0.101 | [5] -0.102 | [3] 0.172

DHPS (UniProt M0R1T2)
inactive: [6] 0.063 | entinostat 0.072

DESI1 (UniProt Q6ICB0)
inactive: [4] -0.034 | [2] -0.096 | citarinostat 0.092 | [3] -0.179

DLK1 (UniProt P80370)
inactive: [2] -0.061 | citarinostat -0.018 | [5] -0.109 | [3] -0.203

DKK4 (UniProt Q9UBT3)
inactive: vorinostat -2.08

DFFA isoform 2 (UniProt O00273)
inactive: [1] 0.04 | silmitasertib -0.106 | [5] 0.058

DDR1 isoform 5 (UniProt Q08345)
inactive: [2] -0.1 | vorinostat 0.304 | [5] -0.003

DDB1 isoform 2 (UniProt Q16531)
inactive: [6] -0.295 | entinostat -0.237 | vorinostat -0.032 | citarinostat -0.203 | [5] -0.09 | [3] -0.12

DMXL2 isoform 3 (UniProt Q8TDJ6)
inactive: [6] -0.077 | [4] -0.123 | [2] -0.323 | entinostat 0.079 | vorinostat -0.182 | [5] 0.026

DEF6 (UniProt Q9H4E7)
inactive: [1] 0.016 | silmitasertib 0.079 | [5] 0.237

DEF8 (UniProt Q6ZN54)
inactive: [4] -0.12 | [2] 0.22

DDHD1 (UniProt Q8NEL9)
inactive: [6] 0.173 | entinostat -0.077 | vorinostat 0.009

DET1 isoform 2 (UniProt Q7L5Y6)
inactive: [1] 0.001 | silmitasertib 0.043

DENND1C (UniProt Q8IV53)
inactive: [6] 0.049 | [2] 0.089 | entinostat -0.097

DHX35 (UniProt Q9H5Z1)
inactive: [5] -0.23

DDX55 (UniProt Q8NHQ9)
inactive: [6] 0.065 | [2] 0.086 | entinostat 0.126 | citarinostat -0.215 | [3] 0.053

DHTKD1 (UniProt Q96HY7)
inactive: citarinostat 0.099 | [5] 0.033 | [3] 0.014

DDX42 (UniProt Q86XP3)
inactive: [6] -0.102 | [4] 0.186 | entinostat -0.047 | vorinostat 0.155 | citarinostat 0.043 | [5] -0.211 | [3] 0.004

DESI2 (UniProt Q9BSY9)
inactive: [6] 0.016 | entinostat 0.029 | citarinostat 0.103 | [3] -0.089

DENND1A isoform 6 (UniProt Q8TEH3)
inactive: [2] -0.119

DDX39B (UniProt H0Y400)
inactive: [5] 0.152

DMKN (UniProt Q6E0U4)
inactive: [1] 0.016 | [2] 0.267 | citarinostat -0.279 | silmitasertib 0.127 | [3] 0.173

Reprinted at random: 2 records from the list, in no set order.
DDX42 (UniProt Q86XP3)
inactive: [6] -0.102 | [4] 0.186 | entinostat -0.047 | vorinostat 0.155 | citarinostat 0.043 | [5] -0.211 | [3] 0.004

DENND1A isoform 6 (UniProt Q8TEH3)
inactive: [2] -0.119

(listing goes on)

DDAH1 (UniProt O94760)
inactive: [4] -0.043 | [1] -0.03 | [2] -0.007 | vorinostat 0.069 | citarinostat 0.08 | silmitasertib -0.012 | [3] -0.011
